Measured values taken from patent publication US4988691A (priority 1989, dated 1991).

System: Ca^++ receptors
Experiment: displacement of 3H-nitrendipine from Ca++ receptors, rat brain membranes
Format: binding
Settings: 3H-nitrendipine 1nM

COC(=O)C1=C(C)NC(C)=C(C(=O)OC)C1c1ccccc1[N+](=O)[O-] [nifedipine, reference compound]
Displacement activity at receptors of Ca++: 1.2
